The source of these data is the supplement of paper PMC11237882.

The labels stand for the following.
T1: Homer1 EVH1 domain
T1 chain: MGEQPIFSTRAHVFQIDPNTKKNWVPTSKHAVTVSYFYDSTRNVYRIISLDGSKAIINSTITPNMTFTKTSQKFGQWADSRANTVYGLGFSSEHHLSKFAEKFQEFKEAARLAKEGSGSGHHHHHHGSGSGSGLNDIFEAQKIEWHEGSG

This is one part of the list. Values are worked out from sequencing counts and are noisy.

The target of the assay is T1, Homer1 EVH1 domain. As to the kind of experiment: enrichment score (AUC of log2 frequency ratio across FACS sorting rounds) (log2 AUC); higher = stronger enrichment for Homer1 EVH1 binding.
LKPAIAEYIVKKAKQRIALQRWQDELNRRKNHKGMI: the enrichment score was -0.0596.

Regarding WRKALRGKVRAAGSRAPPRTRVLGPSLLRLASPYFL, the enrichment score is -0.0987.

Turning to MKAVLLALLMAGLALQPGTALLCYFCKAQVSNEDCL, the enrichment score is 0.592.

Consider MRLLWGLIWASSFFTLSLQKPRLLLFSPSVVHLEAQ, for which the enrichment score is -1.99.

As for MAESAGASSFFPLVVLLLAGSGGSGPRGVQALLCAY, the enrichment score is 2.68.

In the case of QTNGITLINWWAMARVIFEVMLVVVGMIILISYCIR, the enrichment score turned out to be 0.476.

In the case of GSTRKVFMMRQLAASFVMWTPVWLVMVVVFSKGKIC, the enrichment score is 1.18.

For the molecule RSLFNSPERAKYLGNLIKGVKRILENPQGLSDPGNY, the enrichment score worked out at 0.00981.

Take LGLLLACFGGAVLYILTRADWKRPSQAEEQALSMDF: the enrichment score was found to be 0.0396.

Take LISGVMTSKEIILGLCLLSLVLSMILMVIIRYISRV: the enrichment score is -1.6.

GKKSISLAGCGTQIFFYVSLLGAECFLLAVMAYDRY: the enrichment score turned out to be 1.25.

For VWSVLFLPICTTVFIIFSRIDLFHPIQWLSDSFSDL, the enrichment score was found to be 0.308.

Consider FISSYYGINLASAFIILVLIGTWAFLTAGGSCRSLK, for which the enrichment score worked out at 2.11.

Consider LYTMRRGGLFYATGLCQLCTSVAVFTGALIYAIHAD, for which the enrichment score was determined as 2.51.

On to SHKEILQVIQREGLKEIRSGTSPLACLNAMLHTNSR, for which the enrichment score worked out at 1.56.

As to KHAVLGLYLLVFLILVGIFILAVSRPRSSPDDLKAL, the enrichment score was -3.18.

On to MVLLSLWLIAAALVEVRTSADGQAGNEEMVQIDLPI, for which the enrichment score was -2.44.

As for SNQELRKMGLDFAGFTAHMFIGICLVLLVCFPLLRL, the enrichment score was found to be 2.47.

Consider MAIGNWTEISEFILMSFSSLPTEIQSLLFLTFLTIY, for which the enrichment score was -2.67.

As for VENTKKLLRFNPLDPFVLSIKVFPFLTPILEALNIT, the enrichment score is -2.56.

For PFIVLVTVENELSYVLKVFMSLMSLTAFSYASQYIA, the enrichment score is 2.3.

As to HLGEKTYHYVPEFRKVSIAATIIYAYAWLVPLALWG, the enrichment score stood at 2.02.

For the molecule ECLLRPWFYKILAVVLSIFSVIVVWSECTFFSTTPG, the enrichment score turned out to be 3.35.

MEPQLGPEAAALRPGWLALLLWVSALSCSFSLPASS: the enrichment score turned out to be 3.09.

Consider PPAGTPDAAHPGPSVVPVLLPLLAGTLLLLGRPLHR, for which the enrichment score worked out at 2.

For the molecule KEYGSLKDSTKDDNSNPGGKTDEPKGKTEAYLEAIR, the enrichment score was -0.446.

For NLTSVLERLEDTKDNSSVRKETKLFSLFLMNIIFRK, the enrichment score turned out to be 0.81.

In the case of QDPKMQVYKDEQVVVIKDKYPKARYHWLVLPWTSIS, the enrichment score amounted to 0.928.

Regarding MALNNFLFAQCACYFLAFLFSFVVVVPLSENGHDFR, the enrichment score was found to be 2.22.

Turning to SVSTSENSTSALADVSWTQFNIIILTVIIIVVVLLM, the enrichment score is -0.686.

For PEHNTDFGAFKHLYMLLVNAFNLSQNSLSKKSLNVW, the enrichment score was -1.89.

In the case of ELWAPNMCHLQLMETFLILMMGSWLMQAGFILYRPG, the enrichment score came to 3.31.

In the case of QGMFIFLFLCVLSRKIQEEYYRLFKNVPCCFGCLSC, the enrichment score amounted to 0.373.

LIGEYLHLAFYYFLLVLYILCSFLSYCLLLWLGSFL: the enrichment score was found to be 2.62.

Consider EFYAVTGFPYPTTGTAVAYRGPHLRGRGRAVYNTFR, for which the enrichment score is -0.382.

On to ERSGLSEWLGNKLTPLQSVPAPALAIILSLLVATFT, for which the enrichment score was found to be 3.17.

In the case of VPTPTPPSKSGSLLDSDNFIGLFVFVLCLLYSSIRT, the enrichment score was -2.29.

For the molecule IVGFAIMFFIIFFAYAQLGFLVFGSQVDDFSTFQNS, the enrichment score was -0.48.

As to MGPPSLVLCLLSATVFSLLGGSSAFLSHHRLKGRFQ, the enrichment score was -0.399.

In the case of VMAYDRYIAISQPLRYVTIMNTQLCVGLVVAAWVVI, the enrichment score amounted to 3.46.

Turning to EYLELRFNKCVRLCGTVLFIVQTILYTGIVIYAPAL, the enrichment score is -0.609.

As for IFVLDYLIIFISYVLILKTVLSIASREERAKALITC, the enrichment score was 2.67.

Regarding RGRATGITGNFANIGGALASLVMILSIYSRTLPWII, the enrichment score is 1.73.

Consider ASLLLSALLLGCLVALGVQYHRDPSHSTCLTEACIP, for which the enrichment score was -1.16.
